Test results reported in paper PMC10009235.
No constants are given. Whether binding was seen depends on the method and setting. For part of these data: In cells and extracts the contact can be indirect. Some entries that bind do so weakly or less than the wild type. For part of these data: Sequences can lack the tags named with a protein. Each block holds one binder with its values, some of them ahead of it.

Tests used:
[1] = target: T1, ETV2 (Ets variant 2), yeast two-hybrid fusion (UniProt P41163); experiment: two-hybrid; yeast two hybrid screen for ETV2 interacting partners; no methods given
T1 sequence: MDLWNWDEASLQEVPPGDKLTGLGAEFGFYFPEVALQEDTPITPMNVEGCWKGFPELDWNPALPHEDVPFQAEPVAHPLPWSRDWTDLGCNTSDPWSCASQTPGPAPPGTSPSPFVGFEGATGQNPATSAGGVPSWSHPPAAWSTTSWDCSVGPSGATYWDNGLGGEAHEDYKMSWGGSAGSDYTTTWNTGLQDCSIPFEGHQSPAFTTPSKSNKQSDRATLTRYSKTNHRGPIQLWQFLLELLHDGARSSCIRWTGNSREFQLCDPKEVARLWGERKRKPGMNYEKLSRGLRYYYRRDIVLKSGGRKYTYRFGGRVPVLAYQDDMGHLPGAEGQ

[2] = target: T2, HA-tagged ETV2 (UniProt P41163); experiment: co-IP; lysates of day 4 EBs from dox-inducible HA-Etv2 mouse ES cells (doxycycline 0.5 ug/mL days 2-3); IP with mouse anti-HA (12CA5), blot anti-VEZF1; lysis buffer 20 mM HEPES-KOH pH 7.9, 150 mM NaCl, 0.5% NP40, 1 mM EDTA, 10% glycerol
T2 sequence: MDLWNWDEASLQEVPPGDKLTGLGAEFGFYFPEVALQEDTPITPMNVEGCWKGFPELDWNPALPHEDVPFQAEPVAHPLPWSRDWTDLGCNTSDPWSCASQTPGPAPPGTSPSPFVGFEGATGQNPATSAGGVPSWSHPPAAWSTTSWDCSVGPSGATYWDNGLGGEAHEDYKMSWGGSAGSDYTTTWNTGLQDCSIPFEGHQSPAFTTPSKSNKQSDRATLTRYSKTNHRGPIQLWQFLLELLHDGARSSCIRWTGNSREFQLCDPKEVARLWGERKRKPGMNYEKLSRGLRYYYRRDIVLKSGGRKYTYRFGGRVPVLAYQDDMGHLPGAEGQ

[3] = target: T3, endogenous ETV2 (mouse (endogenous in mouse ES cell-derived embryoid bodies)) (UniProt P41163); experiment: co-IP; D4 EB lysates; IP with ETV2 antibody (abcam ab181847), blot for VEZF1
T3 sequence: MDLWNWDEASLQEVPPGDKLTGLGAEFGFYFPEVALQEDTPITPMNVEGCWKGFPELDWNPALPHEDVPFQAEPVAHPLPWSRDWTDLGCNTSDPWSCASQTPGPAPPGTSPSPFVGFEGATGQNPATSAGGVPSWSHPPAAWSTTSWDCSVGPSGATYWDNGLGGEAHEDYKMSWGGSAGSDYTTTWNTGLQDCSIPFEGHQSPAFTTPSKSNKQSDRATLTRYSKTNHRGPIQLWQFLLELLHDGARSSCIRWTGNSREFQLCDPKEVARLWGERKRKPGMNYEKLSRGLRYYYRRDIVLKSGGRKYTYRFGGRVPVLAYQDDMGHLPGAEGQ

[4] = target: T4, GST-tagged C-terminal ETV2 (227-335) (UniProt P41163); experiment: pull-down; GST fusion proteins on Glutathione Sepharose 4B beads, blocked with BSA (2 mg/mL), incubated with 6 uL in vitro translated VEZF1 for 2 h at 4 C; washes with cold PBS, elution with 10 mM glutathione pH 8.0; blot anti-Flag; only the target purified
T4 sequence: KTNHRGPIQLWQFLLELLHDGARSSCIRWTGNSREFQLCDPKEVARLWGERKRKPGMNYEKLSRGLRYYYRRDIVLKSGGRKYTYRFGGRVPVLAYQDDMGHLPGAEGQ

[5] = target: T5, GST-tagged full length ETV2 (1-335) (UniProt P41163); experiment: as above
T5 sequence: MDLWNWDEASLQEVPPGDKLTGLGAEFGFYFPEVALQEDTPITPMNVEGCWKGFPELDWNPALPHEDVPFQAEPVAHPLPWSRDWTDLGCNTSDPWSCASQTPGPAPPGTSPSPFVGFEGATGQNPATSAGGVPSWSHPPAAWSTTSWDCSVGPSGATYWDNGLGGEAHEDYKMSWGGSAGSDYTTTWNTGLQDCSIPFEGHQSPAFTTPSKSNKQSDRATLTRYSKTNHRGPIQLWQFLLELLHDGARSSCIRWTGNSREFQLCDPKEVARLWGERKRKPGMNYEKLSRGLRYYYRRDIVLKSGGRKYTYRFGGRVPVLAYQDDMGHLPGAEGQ

[6] = target: T6, GST-tagged N-terminal ETV2 (1-226) (UniProt P41163); experiment: as above
T6 sequence: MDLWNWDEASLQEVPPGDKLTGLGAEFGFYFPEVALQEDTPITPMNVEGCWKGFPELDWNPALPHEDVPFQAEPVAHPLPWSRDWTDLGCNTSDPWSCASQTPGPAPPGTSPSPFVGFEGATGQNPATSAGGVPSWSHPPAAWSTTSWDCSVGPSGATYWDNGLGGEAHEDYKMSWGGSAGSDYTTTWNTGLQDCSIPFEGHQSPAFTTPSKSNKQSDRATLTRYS

binding [1]: binds
B1: VEZF1 (vascular endothelial zinc finger 1), yeast two-hybrid hit (protein, UniProt Q5SXC4 1-518)
chain: MEANWTAFLFQAHEASHHQQQAAQNSLLPLLSSAVEPPDQKPLLPIPITQKPQAAPETLKDAIGIKKEKPKTSFVCTYCSKAFRDSYHLRRHQSCHTGIKLVSRAKKTPTTVVPLISTIAGDSSRTSLVSTIAGILSTVTTSSSGTNPSSSASTTSMPVPQSVKKPSKPVKKNHACEMCGKAFRDVYHLNRHKLSHSDEKPFECPICNQRFKRKDRMTYHVRSHEGGITKPYTCSVCGKGFSRPDHLSCHVKHVHSTERPFKCQTCTAAFATKDRLRTHMVRHEGKVSCNICGKLLSAAYITSHLKTHGQSQSINCNTCKQGISKTCMSEETSNQKQQQQQQQQQQQQQQQHVTSWPGKQVETLRLWEEAVKARKKEAANLCQTSTAATTPVTLTTPFNITSSVSSGTMSNPVTVAAAMSMRSPVNVSSAVNITSPMNIGHPVTITSPLAMTSPLTLTTPVNLPTPVTAPVNIAHPVTITSPMNLPTPMTLAAPLNIAMRPVESMPFLPQALPTSPPW

binding [2]: binds | binding [3]: binds
B2: endogenous VEZF1 (protein, UniProt Q5SXC4 1-518)
chain: MEANWTAFLFQAHEASHHQQQAAQNSLLPLLSSAVEPPDQKPLLPIPITQKPQAAPETLKDAIGIKKEKPKTSFVCTYCSKAFRDSYHLRRHQSCHTGIKLVSRAKKTPTTVVPLISTIAGDSSRTSLVSTIAGILSTVTTSSSGTNPSSSASTTSMPVPQSVKKPSKPVKKNHACEMCGKAFRDVYHLNRHKLSHSDEKPFECPICNQRFKRKDRMTYHVRSHEGGITKPYTCSVCGKGFSRPDHLSCHVKHVHSTERPFKCQTCTAAFATKDRLRTHMVRHEGKVSCNICGKLLSAAYITSHLKTHGQSQSINCNTCKQGISKTCMSEETSNQKQQQQQQQQQQQQQQQHVTSWPGKQVETLRLWEEAVKARKKEAANLCQTSTAATTPVTLTTPFNITSSVSSGTMSNPVTVAAAMSMRSPVNVSSAVNITSPMNIGHPVTITSPLAMTSPLTLTTPVNLPTPVTAPVNIAHPVTITSPMNLPTPMTLAAPLNIAMRPVESMPFLPQALPTSPPW

binding [4]: binds | binding [5]: binds | binding [6]: binds
B3: in vitro translated myc-flag-tagged VEZF1 (protein, UniProt Q5SXC4 1-518)
chain: MEANWTAFLFQAHEASHHQQQAAQNSLLPLLSSAVEPPDQKPLLPIPITQKPQAAPETLKDAIGIKKEKPKTSFVCTYCSKAFRDSYHLRRHQSCHTGIKLVSRAKKTPTTVVPLISTIAGDSSRTSLVSTIAGILSTVTTSSSGTNPSSSASTTSMPVPQSVKKPSKPVKKNHACEMCGKAFRDVYHLNRHKLSHSDEKPFECPICNQRFKRKDRMTYHVRSHEGGITKPYTCSVCGKGFSRPDHLSCHVKHVHSTERPFKCQTCTAAFATKDRLRTHMVRHEGKVSCNICGKLLSAAYITSHLKTHGQSQSINCNTCKQGISKTCMSEETSNQKQQQQQQQQQQQQQQQHVTSWPGKQVETLRLWEEAVKARKKEAANLCQTSTAATTPVTLTTPFNITSSVSSGTMSNPVTVAAAMSMRSPVNVSSAVNITSPMNIGHPVTITSPLAMTSPLTLTTPVNLPTPVTAPVNIAHPVTITSPMNLPTPMTLAAPLNIAMRPVESMPFLPQALPTSPPW
